Data as given in PubChem BioAssay AID1347431 (National Center for Advancing Translational Sciences (NCATS), 2020).
Out of some 1,200 compounds screened, fewer than 10 were called active. Calls come from the whole dose curve; as a rule, active = well fitted curve in the direction sought with a large enough effect; inconclusive = small, poorly fitted or top-dose-only effect, or another doubt; inactive = no such curve, though single readings can be large or run the other way. The list shows a part of the results.

Test: Confirmatory qHTS assay for inhibitors of Activation Induced Cytidine Deaminase (AID): UDG signals; note: 0% is about no effect
Conditions: UDG coupled enzyme activity counter-screen; at 115 µM (top of the series) unless noted
Method in brief: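 Fluorescence at 560 nm excitation/665 nm emission reports UDG activity, read after NaOH quench of a 4 h room-temperature reaction of DJC20/DJC23 substrates with AID (1 uM, 4/3x) and UDG (2 U/mL, 4/3x); compounds at 7.32 nM - 114 uM final, preincubated 10 min.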

Compound | activity change, negative = inhibition
CCCCCCSc1nc(N)c2c3c(sc2n1)CCCC3C (stereo not given) | inactive: -13.7%
CC(C)Oc1ccc(C(=O)NCCc2csc(-c3cccc(F)c3)n2)cc1 | inactive: 2.66%
Cc1cc(OCC(=O)N(Cc2ccc(N(C)C)cc2)C2CCS(=O)(=O)C2)cc(C)c1Cl (stereo not given) | inactive: -8.74%
Cc1ccc(C)c(N2CCN(C(=O)c3cc(S(=O)(=O)N4CCC(C)CC4)cn3C)CC2)c1 | inactive: -15.4%
COc1ccc(CC(=O)NCC(c2cccs2)S(=O)(=O)c2ccc(Cl)cc2)cc1 (stereo not given) | inactive: -11.8%
COc1ccc(-c2noc(N3CCC(C(=O)N(C)c4cc(Cl)ccc4OC)CC3)n2)cc1 | inactive: -3.46%
CC1=C(C(=O)Nc2ccccc2)C(c2cc(Br)ccc2F)n2ncc(C(=O)Nc3ccccc3)c2N1 (stereo not given) | inactive: -3.33%
Cc1ccc(C)c(Cn2nc(-c3cc(C)ccc3C)ccc2=O)c1 | inactive: -10.4%
COc1cccc(N2CCN(C(=O)c3cnn(-c4ccc(C)cc4C)c3C3CCN(C(=O)OC(C)(C)C)CC3)CC2)c1 | inactive: -4.76%
CCOC(=O)c1c(Oc2ccc(C(C)=O)cc2)nnc(-c2ccccc2)c1-c1ccccc1 | inactive: 2.33%
CCN(CC)CCCNC(=O)c1ccc2c(Cl)c3c(nc2c1)CCCC3 | inactive: -1.59%
O=C(O)c1ccc2c(c1)N(Cc1ccc(F)cc1Cl)C(=O)c1ccccc1S2 | inactive: 12.6%
CCn1c(SCc2ccc(F)cc2Cl)nc(=O)c2c(C(=O)OC)cc(C3CC3)nc21 | inactive: -1.22%
Cc1ccc(CSc2nc(-c3ccc(C(C)(C)C)cc3)nc3cc(=O)[nH]n23)cc1 | inactive: -11.4%
CCOCCCNC(=O)c1cn(CC)c2ccc(S(=O)(=O)N3CCc4ccccc4C3)cc2c1=O | inactive: -2.99%
Cc1nc(-n2nc(C)c(CCC(C)C)c2C)sc1C(=O)Nc1cccc(Cl)c1 | inactive: 0.214%
CCOc1ccc(N(CC)C(=O)CCc2nc(-c3ccccc3F)no2)cc1 | inactive: -9.82%
CC(C)c1ccc(NC(=O)c2ccc3c(O)c(S(=O)(=O)c4ccccc4)c(=O)[nH]c3c2)cc1 | inactive: 1.07%
Cc1ccc(CNC(=O)c2sc3nc4n(c(=O)c3c2C)CCCCC4)cc1 | inactive: -0.0061%
Cc1ccc(N2CCN(C(=O)NCc3noc4ccc(C)cc34)CC2)c(C)c1 | inactive: -5.98%

Reprinted from the results shown for reference:
Compound | activity change, negative = inhibition
COc1ccc(-c2noc(N3CCC(C(=O)N(C)c4cc(Cl)ccc4OC)CC3)n2)cc1 | inactive: -3.46%
CC1=C(C(=O)Nc2ccccc2)C(c2cc(Br)ccc2F)n2ncc(C(=O)Nc3ccccc3)c2N1 (stereo not given) | inactive: -3.33%

Next part.

Compound | activity change, negative = inhibition
CCOC(=O)N1CCc2c(sc(NCc3cccs3)c2C(=O)Nc2ccc(OC)cc2OC)C1 | inactive: -29.7%
O=C(CC1N=C2c3ccccc3N=C(SCc3cccc(Cl)c3)N2C1=O)NCCc1ccccc1 (stereo not given) | inactive: -3.02%
COc1ccc(CC(=O)N(Cc2nc(-c3ccc(C)cc3)no2)C(C)C)cc1 | inactive: 5.81%
COc1ccc(C2CC(=O)N3CN(C4CCCCC4)CSC3=C2C#N)c(OC)c1 (stereo not given) | inactive: -11.5%
Cc1c(C(=O)NCc2cccc(Cl)c2)sc2nc3n(c(=O)c12)CCCC3 | inactive: -2.09%
CCn1c(C)c(C)c2cc(C(=O)N3CCN(c4ccccc4)CC3)ccc21 | inactive: -3.16%
CCOc1ccccc1NC(=O)c1c2c(nc3ccccc13)C(=O)N(C1CCCCC1)C2 | inactive: 4.66%
COc1ccccc1CC(=O)Nc1ccc2nc(Nc3cccc(C(F)(F)F)c3)cc(C)c2c1 | inactive: -7.35%
Cc1ccc(Cl)cc1N1CCN(C(=O)c2cnn(C)c2C2CCN(C(=O)OC(C)(C)C)CC2)CC1 | inactive: -9.92%
Cc1cc(C)c(NC(=O)CCCn2c(C)c3cnn(-c4ccccc4)c(=O)c3c2C)c(C)c1 | inactive: -9.84%
Cc1ccc(-n2nc3c(N4CCC(C(=O)NC(C)c5ccccc5)CC4)nnc(C)c3c2C)cc1 (stereo not given) | inactive: 6.34%
Cc1ccc(C(=O)Nc2ccccc2C(=O)O)cc1S(=O)(=O)N1CCCCCC1 | inactive: -0.658%
Cc1ccc2c(c1)c(=O)c(C(=O)c1ccc3c(c1)OCO3)cn2Cc1cccc(F)c1 | inactive: 1.92%
Cc1cc(Cl)ccc1OCC(=O)N1CCC(c2nc3ccccc3o2)CC1 | inactive: -9.75%
Cc1nc(-c2ccc(S(=O)(=O)N(Cc3ccccc3)C(C)C)cc2)co1 | inactive: -1.18%
Cn1c(=O)c2sccc2n2c(CCCC(=O)Nc3ccc(Oc4ccc(Cl)cc4)cc3)nnc12 | inactive: -2.42%
COc1ccc(Nc2nc3ccccc3nc2NS(=O)(=O)c2ccc(Cl)cc2)cc1OC | inactive: 8.81%
Cc1ccccc1OCc1nnc(SCc2cc(=O)c3ccc(C)c(C)c3[nH]2)n1C | inactive: -4.03%
COc1ccc(-c2cc(C(F)(F)F)nc(NCCc3ccccc3)n2)cc1 | inactive: 8.87%
O=C(/C=C/c1cn(CC(O)CN2CCCCCC2)c2ccccc12)c1ccc(Br)cc1 (stereo not given) | inactive: -8.82%
